Source: US10123537B2, “Amide compound or salt thereof, agricultural and horticultural insecticide and microbicide comprising the compound, and method for using the insecticide and microbicide” (NIHON NOHYAKU CO., LTD., priority 2013, dated 2018)
Some of these results come from one statement about several compounds together.

Tested on: Myzus persicae
Test: Test of control effect on Myzus persicae
Format: in vivo
Details: 500 ppm, foliar application to potted Chinese cabbage, 6 days after application

Row | Structure (SMILES) | control effect (control rate) activity level
1 | CCSc1cc(C(F)(F)F)ccc1C(=O)N(C)c1ccc(C(F)(F)F)cn1 [Compound 1-1, 2-(ethylthio)-N-methyl-4-(trifluoromethyl)-N-(5-(trifluoromethyl)pyridin-2-yl)benzamide] | A (the control rate is 100%)
2 | CC[S+]([O-])c1cc(C(F)(F)F)ccc1C(=O)N(C)c1ccc(C(F)(F)F)cn1 (stereo not drawn) [Compound 1-2, 2-(ethylsulfinyl)-N-methyl-4-(trifluoromethyl)-N-(5-(trifluoromethyl)pyridin-2-yl)benzamide] | A (the control rate is 100%)
3 | CCS(=O)(=O)c1cc(C(F)(F)F)ccc1C(=O)N(C)c1ccc(C(F)(F)F)cn1 [Compound 1-3, 2-(ethylsulfonyl)-N-methyl-4-(trifluoromethyl)-N-(5-(trifluoromethyl)pyridin-2-yl)benzamide] | A (the control rate is 100%)
